Results are given in words; binding and its absence hold for the method and conditions named. Binding seen in cells or lysates may run through a third protein. Some results given as binding are weak or reduced against the parent protein; the word gives no strength.

Experimental findings from paper doi:10.1101/205765 are described below.

For the assay, the target named is Solanum tuberosum REMORIN group 1b homolog 3 (StREM1.3) (Solanum tuberosum) (UniProt P93788). Description: split reporter.

B1: Solanum tuberosum REMORIN group 1b homolog 3 (StREM1.3) (protein, UniProt P93788 1-198)
chain: MAELEAKKVEIVDPAPPAPGPVEAPKEVVADEKAIVAPALPPPAEEKEKPDDSKALVVVETKAPEPADEKKEGSIDRDAVLARVATEKRVSLIKAWEESEKSKAENKAQKKVSAIGAWENSKKANLEAELKKMEEQLEKKKAEYTEKMKNKIALLHKEAEEKRAMIEAKRGEDLLKAEELAAKYRATGTAPKKILGIF
On to B1, for which the binding result is listed as “binds”.
